The record followed here is doi:10.1101/2021.02.12.430872.

The chains behind the UniProt entries cited, without tags or fusion partners.
UniProt Q8C0T5: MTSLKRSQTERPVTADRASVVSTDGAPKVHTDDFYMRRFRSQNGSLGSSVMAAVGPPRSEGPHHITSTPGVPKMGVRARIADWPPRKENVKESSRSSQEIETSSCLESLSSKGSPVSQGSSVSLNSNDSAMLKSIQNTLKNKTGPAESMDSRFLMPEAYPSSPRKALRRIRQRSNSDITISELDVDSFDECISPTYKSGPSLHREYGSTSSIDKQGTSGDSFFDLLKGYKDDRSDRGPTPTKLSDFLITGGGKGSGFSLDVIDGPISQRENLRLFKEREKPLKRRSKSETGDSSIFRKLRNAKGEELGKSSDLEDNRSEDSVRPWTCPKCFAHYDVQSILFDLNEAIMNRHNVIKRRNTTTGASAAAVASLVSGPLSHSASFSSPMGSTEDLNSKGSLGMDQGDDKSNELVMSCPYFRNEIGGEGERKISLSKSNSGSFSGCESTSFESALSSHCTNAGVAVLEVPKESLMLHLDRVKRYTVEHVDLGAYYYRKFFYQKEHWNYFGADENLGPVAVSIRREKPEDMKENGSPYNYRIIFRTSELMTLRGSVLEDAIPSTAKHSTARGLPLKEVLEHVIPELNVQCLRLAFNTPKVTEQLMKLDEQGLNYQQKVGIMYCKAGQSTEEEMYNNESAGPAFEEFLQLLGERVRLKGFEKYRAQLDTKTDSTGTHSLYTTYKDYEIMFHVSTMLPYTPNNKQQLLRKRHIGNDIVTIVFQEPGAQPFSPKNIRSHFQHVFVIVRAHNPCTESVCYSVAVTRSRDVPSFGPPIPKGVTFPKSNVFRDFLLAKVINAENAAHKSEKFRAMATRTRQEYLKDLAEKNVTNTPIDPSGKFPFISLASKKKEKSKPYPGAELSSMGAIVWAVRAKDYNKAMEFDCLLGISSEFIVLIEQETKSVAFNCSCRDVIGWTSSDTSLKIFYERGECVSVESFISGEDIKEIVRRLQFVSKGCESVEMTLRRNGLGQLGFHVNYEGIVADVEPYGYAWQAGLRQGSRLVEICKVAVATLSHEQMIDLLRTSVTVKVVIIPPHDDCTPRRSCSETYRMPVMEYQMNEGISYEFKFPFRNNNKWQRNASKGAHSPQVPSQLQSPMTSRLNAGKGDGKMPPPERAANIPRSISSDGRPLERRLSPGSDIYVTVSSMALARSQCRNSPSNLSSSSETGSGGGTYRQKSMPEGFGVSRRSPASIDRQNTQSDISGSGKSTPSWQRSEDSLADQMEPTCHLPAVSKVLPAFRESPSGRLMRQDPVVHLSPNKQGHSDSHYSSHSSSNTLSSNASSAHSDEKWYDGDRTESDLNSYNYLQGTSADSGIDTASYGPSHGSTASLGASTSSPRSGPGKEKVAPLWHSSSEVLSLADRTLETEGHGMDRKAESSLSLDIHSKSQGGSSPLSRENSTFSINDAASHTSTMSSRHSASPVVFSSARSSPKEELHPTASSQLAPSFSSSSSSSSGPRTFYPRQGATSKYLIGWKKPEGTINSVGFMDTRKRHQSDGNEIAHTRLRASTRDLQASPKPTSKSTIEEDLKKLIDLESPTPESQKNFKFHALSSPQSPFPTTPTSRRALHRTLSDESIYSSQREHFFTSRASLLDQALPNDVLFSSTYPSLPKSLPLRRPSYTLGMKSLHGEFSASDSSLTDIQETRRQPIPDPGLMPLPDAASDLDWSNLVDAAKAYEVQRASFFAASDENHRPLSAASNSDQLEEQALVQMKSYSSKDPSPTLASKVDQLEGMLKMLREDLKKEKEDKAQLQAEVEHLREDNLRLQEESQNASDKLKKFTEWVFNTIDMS
UniProt A2AHG0: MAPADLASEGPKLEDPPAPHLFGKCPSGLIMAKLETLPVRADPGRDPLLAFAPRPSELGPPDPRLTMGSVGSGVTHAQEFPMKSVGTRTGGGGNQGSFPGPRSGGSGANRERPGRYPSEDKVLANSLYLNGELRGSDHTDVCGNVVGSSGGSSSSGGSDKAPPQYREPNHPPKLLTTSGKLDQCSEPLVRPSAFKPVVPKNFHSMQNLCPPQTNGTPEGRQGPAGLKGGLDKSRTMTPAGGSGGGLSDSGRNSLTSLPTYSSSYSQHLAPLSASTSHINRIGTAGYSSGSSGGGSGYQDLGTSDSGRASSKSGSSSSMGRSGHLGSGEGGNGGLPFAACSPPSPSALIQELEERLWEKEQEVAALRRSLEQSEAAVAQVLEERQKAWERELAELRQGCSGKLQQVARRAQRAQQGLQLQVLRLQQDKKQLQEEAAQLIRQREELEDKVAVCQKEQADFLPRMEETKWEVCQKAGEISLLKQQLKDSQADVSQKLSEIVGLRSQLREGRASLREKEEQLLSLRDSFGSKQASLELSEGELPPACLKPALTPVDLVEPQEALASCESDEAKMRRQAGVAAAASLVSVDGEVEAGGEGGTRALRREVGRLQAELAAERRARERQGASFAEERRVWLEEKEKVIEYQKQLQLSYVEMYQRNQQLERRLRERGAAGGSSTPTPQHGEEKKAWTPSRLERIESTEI
UniProt Q6R891: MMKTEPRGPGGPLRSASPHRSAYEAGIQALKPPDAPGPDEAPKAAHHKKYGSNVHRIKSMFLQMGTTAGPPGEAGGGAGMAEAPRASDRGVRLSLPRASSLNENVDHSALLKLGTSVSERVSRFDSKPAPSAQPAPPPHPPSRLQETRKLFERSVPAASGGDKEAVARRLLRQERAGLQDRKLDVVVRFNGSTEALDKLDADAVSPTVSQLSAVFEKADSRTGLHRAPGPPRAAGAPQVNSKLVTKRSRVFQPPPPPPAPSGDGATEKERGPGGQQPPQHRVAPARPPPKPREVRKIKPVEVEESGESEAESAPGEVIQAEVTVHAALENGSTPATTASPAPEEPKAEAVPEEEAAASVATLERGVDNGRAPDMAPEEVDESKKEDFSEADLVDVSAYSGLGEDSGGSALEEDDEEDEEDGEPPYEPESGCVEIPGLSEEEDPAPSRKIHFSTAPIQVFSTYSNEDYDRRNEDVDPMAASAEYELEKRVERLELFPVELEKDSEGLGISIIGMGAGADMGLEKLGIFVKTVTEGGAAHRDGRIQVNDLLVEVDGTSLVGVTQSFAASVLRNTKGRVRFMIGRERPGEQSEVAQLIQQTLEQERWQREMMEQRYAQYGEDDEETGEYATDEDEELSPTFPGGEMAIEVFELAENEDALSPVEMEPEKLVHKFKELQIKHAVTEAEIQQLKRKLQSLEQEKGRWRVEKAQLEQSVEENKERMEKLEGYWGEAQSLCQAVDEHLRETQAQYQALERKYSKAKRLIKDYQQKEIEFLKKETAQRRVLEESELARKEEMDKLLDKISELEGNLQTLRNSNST
UniProt Q7TPR4: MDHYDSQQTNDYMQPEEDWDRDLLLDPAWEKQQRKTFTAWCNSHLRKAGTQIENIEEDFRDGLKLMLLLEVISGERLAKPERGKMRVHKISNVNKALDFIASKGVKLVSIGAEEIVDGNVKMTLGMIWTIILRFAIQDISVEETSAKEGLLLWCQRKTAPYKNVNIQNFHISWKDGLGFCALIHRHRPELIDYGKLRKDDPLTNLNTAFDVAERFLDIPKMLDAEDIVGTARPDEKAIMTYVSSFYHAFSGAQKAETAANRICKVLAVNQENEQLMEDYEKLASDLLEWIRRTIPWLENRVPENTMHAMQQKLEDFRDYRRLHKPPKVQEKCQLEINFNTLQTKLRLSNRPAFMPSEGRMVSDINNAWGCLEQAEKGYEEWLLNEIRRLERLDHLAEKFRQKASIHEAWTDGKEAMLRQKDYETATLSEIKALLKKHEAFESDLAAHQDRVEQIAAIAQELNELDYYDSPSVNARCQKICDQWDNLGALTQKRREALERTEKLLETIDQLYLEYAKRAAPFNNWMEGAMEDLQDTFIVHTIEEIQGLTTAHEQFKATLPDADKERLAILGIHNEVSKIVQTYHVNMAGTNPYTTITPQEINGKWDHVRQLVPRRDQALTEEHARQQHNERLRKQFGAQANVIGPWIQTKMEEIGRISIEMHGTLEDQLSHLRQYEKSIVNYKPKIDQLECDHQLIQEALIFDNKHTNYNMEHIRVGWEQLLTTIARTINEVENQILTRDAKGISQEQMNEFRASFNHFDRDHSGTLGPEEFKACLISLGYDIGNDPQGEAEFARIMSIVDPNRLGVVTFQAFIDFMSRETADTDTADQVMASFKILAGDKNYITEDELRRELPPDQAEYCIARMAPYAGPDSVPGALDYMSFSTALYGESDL

No constants are given. Whether binding was seen depends on the method and setting. Binding seen in cells or lysates may run through a third protein. These calls come from enrichment with a bait or labelling near it, and not all partners need be listed.

The experiment concerns the target Signal-induced proliferation-associated 1 (SIPA1)-like 1 (SIPA1L1) (mouse (endogenous in brain)) (UniProt Q8C0T5). The experiment is described as follows: affinity purification with mass spectrometry.

“LZTS3/Pro-SAPiP1 (from UniProt A2AHG0 1-700)”: the binding entry is on record as “binds”.

As to “spinophilin (neurabin-2/PP1R9B) (from UniProt Q6R891 1-817)”, the binding result was “binds”.

Regarding α-actinin-1 (from UniProt Q7TPR4 1-892), the binding entry is on record as “binds”.

B1: drebrin (protein, UniProt Q9QXS6 1-706)
chain: MAGVSFSGHRLELLAAYEEVIREESAADWALYTYEDGSDDLKLAASGEGGLQELSGHFENQKVMYGFCSVKDSQAALPKYVLINWVGEDVPDARKCACASHVAKVAEFFQGVDVIVNASSVEDIDAGAIGQRLSNGLARLSSPVLHRLRLREDENAEPVGTTYQKTDAAVEMKRINREQFWEQAKKEEELRKEEERKKALDARLRFEQERMEQERQEQEERERRYREREQQIEEHRRKQQSLEAEEAKRRLKEQSIFGDQRDEEEESQMKKSESEVEEAAAIIAQRPDNPREFFRQQERVASASGGSCDAPAPAPFNHRPGRPYCPFIKASDSGPSSSSSSSSSPPRTPFPYITCHRTPNLSSSLPCSHLDSHRRMAPTPIPTRSPSDSSTASTPIAEQIERALDEVTSSQPPPPPPPPPPTQEAQETTPSLDEELSKEAKVTAAPEVWAGCAAEPPQAQEPPLLQSSPLEDSMCTESPEQAALAAPAEPAASVTSVADVHAADTIETTTATTDTTIANNVTPAAASLIDLWPGNGEEASTLQAEPRVPTPPSGAEASLAEVPLLNEAAQEPLPPVGEGCANLLNFDELPEPPATFCDPEEEVGETLAASQVLTMPSALEEVDQVLEQELEPEPHLLTNGETTQKEGTQASEGYFSQSQEEEFAQSEEPCAKVPPPVFYNKPPEIDITCWDADPVPEEEEGFEGGD
As to B1, the binding result is given as “binds”.

B2: LZTS1/PSD-Zip70 (protein, UniProt P60853 1-599)
chain: MGSVSSLISGHSFHSKHCRASQYKLRKSSHLKKLNRYSDGLLRFGFSQDSGRGKSSSKMGKSEDFFYIKVSQKARGSHRPDYTALSSGDIGGQTGVDFDPATPPKLMPFSNQLEMSSDKGAVRPTAFKPVLPRSGAILHSSPESTSHQLHPMPPDKPKEQELKPGLCSGALSDSGRNSMSSLPTHSTTSSYQLDPLVTPVGPTSRFGGSAHNITQGIILQDSNMMSLKALSFSDGGSKLAHPGKADKGASCVRSPLSTDECTIQELEQKLLQRETALQKLQRSFDEKEFASGQTFEERPRRTRDELECLEPKSKLKPPSQKSQRTQQVLQLQVLQLQQEKRQLRQELESLMKEQDLLETKLRSYEREKTNFAPALEETQWEVCQKSGEISLLKQQLKESQLEVNTKASEILSLKAQLKDTRGKLDGMELKTQDLESALRTKGLELEVCENELQRKKNEAELLREKVNLLEQELMELRAQAALHPAPLGPPGVGLTFSEDIPALQRELDRLRAELKEERQGHDQMSSGFQHERLVWKEEKEKVIQYQRQLQQSYLAMYQRNQRLEKALQQLARGDGPGEPFEIDLEGADIPYEDIIATEI
Regarding B2, the binding result is given as “binds”.
